Source: the supplement of paper PMC3334620
Whole data set: some 33,000 sequences, median “E-score (-0.5 to 0.5)” near -0.015, cut for the highest 2% near 0.3. The list shows a part of the results.

target: T1, Abf1 (UniProt P14164); assay: PBM E-score (8-mer binding enrichment) (E-score (-0.5 to 0.5)); higher = stronger / more preferred TF binding; details: protein concentration: 200 nM; construct: GST-full length
T1 sequence: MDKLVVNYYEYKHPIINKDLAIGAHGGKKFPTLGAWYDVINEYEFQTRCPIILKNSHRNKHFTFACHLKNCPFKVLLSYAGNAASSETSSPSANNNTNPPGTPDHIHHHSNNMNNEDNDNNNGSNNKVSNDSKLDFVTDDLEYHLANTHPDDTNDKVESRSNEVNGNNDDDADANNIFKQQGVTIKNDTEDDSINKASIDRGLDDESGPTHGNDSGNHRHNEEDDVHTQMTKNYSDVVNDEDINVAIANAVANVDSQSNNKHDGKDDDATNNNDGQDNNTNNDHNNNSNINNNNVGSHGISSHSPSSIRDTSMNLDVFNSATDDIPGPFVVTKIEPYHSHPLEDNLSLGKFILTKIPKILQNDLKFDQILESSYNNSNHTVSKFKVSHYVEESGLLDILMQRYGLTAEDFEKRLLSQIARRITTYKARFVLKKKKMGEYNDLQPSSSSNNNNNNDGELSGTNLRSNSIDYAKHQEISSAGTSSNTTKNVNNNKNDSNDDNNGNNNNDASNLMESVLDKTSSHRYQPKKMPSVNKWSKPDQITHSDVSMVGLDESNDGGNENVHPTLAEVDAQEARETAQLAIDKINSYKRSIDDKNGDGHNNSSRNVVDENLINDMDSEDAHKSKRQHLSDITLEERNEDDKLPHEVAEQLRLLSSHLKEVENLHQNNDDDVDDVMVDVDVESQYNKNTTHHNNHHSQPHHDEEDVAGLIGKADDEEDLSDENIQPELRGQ
Summary of the method: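 Universal all-10-mer Agilent arrays, double-stranded by primer extension on fresh or once-stripped slides, were probed with about 100-200 nM GST-tagged yeast transcription factors made by PURExpress. Fluorescent anti-GST detected bound protein, and masliner normalised the scans. E-scores from the Universal PBM Analysis Suite were given to each ungapped eight-base word pooled with its reverse complement.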

Sequence | PBM E-score
ACAGATAC | 0.0423
GTACAGCA | 0.00695
ATACACAT | 0.115
CTGGTGAA | -0.149
CTACGTAC | 0.297
ACGGAACC | 0.231
GAATAATA | 0.235
ACAAGGAT | 0.0172
GACGGTTA | 0.0209
ATCGGTCA | 0.0516
CATTATCG | 0.0198
CCTATACA | -0.125
CACGGTGC | 0.0971
CCATCGCC | -0.204
ACGGGGGA | 0.0699
ACGACCCG | 0.166
ATAAAAAG | 0.18
GGGAATAA | 0.086
AAAGCGAC | 0.242
CCGCTATC | -0.0439
CTCTGCAC | -0.168
AAAGCACT | -0.0166

Sequence | PBM E-score
AATACGCC | -0.158
GGATTTGA | -0.0358
CGTCCCCA | 0.0653
AGCACCAA | -0.00651
AAGGATTG | -0.173
ACATCGTG | 0.185
CATCTCAC | 0.137
CTCTCTCA | -0.104
CTCCGGCC | -0.212
CACACACC | -0.169
AACCGATC | -0.163
GTCACATA | 0.246
CCATCCGC | -0.12
AAGTTTGT | 0.0616
AAGTTCTC | -0.035
AGTAAGCG | -0.0466
TATGCTAA | -0.216
CCACCGTC | 0.0476
AGACAGCC | -0.208
CCCTTTAA | -0.0657
TATACGGA | 0.164
GCCTTACA | -0.205

Sequence | PBM E-score
CGGATCAC | 0.193
CGCATTGC | -0.0662
ATGCCGTA | 0.288
CTGAACGA | 0.173
AAGTACCG | 0.0551
CACGCCTG | -0.0185
CTCCTCTC | -0.269
GCCCCCAC | -0.319
ATCGAAGA | 0.124
CGTATCGC | 0.123
ACGAGGAC | 0.0731
CGCACTAA | 0.0244
CGTAATAA | 0.251
TACAGCCA | -0.224
TTCCACAA | -0.0375
ATGCAGGC | -0.0563
CGATCCAC | 0.0791
AAAGAGGC | -0.209
CAAGGCAG | -0.134
AGGCGTGA | 0.0402
TGGCGTAA | -0.137
CCTCAAGG | -0.217

Sequence | PBM E-score
GAGCCGAA | 0.0505
AAGGGAAT | -0.0145
ACTGACAC | -0.195
ATTCCACC | 0.0168
CCGCTCCA | -0.155
ACCCACCG | 0.0262
GATAAGCC | -0.148
AGCGCACA | -0.0935
GTAATCAC | 0.141
CACCGAAC | -0.111
ACGTTAAT | 0.163
CCCCGTTC | 0.0254
AACCGTAC | 0.162
CGTAGTTA | 0.285
ATCGGGAA | 0.00913
CACGCGTG | 0.0911
TACCCAGA | -0.121
CCGATCAG | 0.0154
ATTACTAG | -0.191
GAAGGGGA | -0.0331

Four records drawn at random from those above:
Sequence | PBM E-score
ATACACAT | 0.115
CTCTGCAC | -0.168
CCGCTCCA | -0.155
CCATCGCC | -0.204
